Data source: PubChem BioAssay AID493246 (Drosophila RNAi Screening Center, 2011)

- Screen: 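Genes fly cells need to grow and stay alive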 (primary screen)
- System: Drosophila Kc and S2R+ cells
- Knock-down reagent: long dsRNA against Drosophila genes
- Measured: 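Cell number per well after knock-down, printed as raw plate values; calls were based on per-plate z-scores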
- Reading the numbers: Kc cell number and S2R+ cell number: higher = more cells remaining
- Active means: 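Counted as a hit if cell number falls by a z-score of at least 3 within its plate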
The deposit covers about 21,000 reagents; below is an unselected part of those with a known target gene and a result. Over the whole deposit, 429 (2%) are marked active. 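Values are raw and not normalised between plates; calls rest on per-plate z-scores that were not deposited.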 A plus sign joins genes that one reagent is predicted to hit. No sequences are given here. The record does not give: the amount of reagent, the time to read-out.

gene	amplicon	Kc cell number, rep 1	Kc cell number, rep 2	S2R+ cell number, rep 1	S2R+ cell number, rep 2	activity call
CG16879 (retired record)	DRSC01918	1.54e6	1.40e6	1.09e6	1.11e6	inactive
CG15200	DRSC19647	1.58e6	1.50e6	1.08e6	1.15e6	inactive
Pal1 + Pdrg1	DRSC06587	1.61e6	1.61e6	1.31e6	1.34e6	inactive
CG12016 + Dpm2	DRSC08224	1.21e6	1.32e6	1.11e6	1.05e6	inactive
Cad86C	DRSC15587	1.45e6	1.63e6	1.28e6	1.41e6	inactive
Cad86C	DRSC15611	1.69e6	1.67e6	1.26e6	1.35e6	inactive
CG6592	DRSC10669	1.42e6	1.42e6	1.11e6	1.21e6	inactive
Tom40	DRSC18796	1.56e6	1.62e6	9.90e5	1.10e6	inactive
CG11977	DRSC14454	1.58e6	1.63e6	1.15e6	1.28e6	inactive
wek	DRSC03561	1.38e6	1.38e6	1.28e6	1.32e6	inactive
kni	DRSC11891	1.39e6	1.44e6	1.22e6	1.31e6	inactive
CCT5	DRSC07357	1.26e6	1.37e6	1.10e6	1.17e6	inactive
disco-r	DRSC20173	1.62e6	1.62e6	1.17e6	1.28e6	inactive
disco-r	DRSC20174	1.68e6	1.67e6	1.19e6	1.29e6	inactive
CG10182	DRSC14202	1.70e6	1.68e6	9.32e5	1.09e6	inactive
GlcAT-P	DRSC10603	1.44e6	1.53e6	1.21e6	1.01e6	inactive
GlcAT-P	DRSC10604	1.49e6	1.58e6	1.09e6	1.17e6	inactive
ND-75	DRSC18686	1.40e6	1.49e6	7.57e5	8.68e5	inactive
CG15533	DRSC15069	1.49e6	1.51e6	9.75e5	1.08e6	inactive
Hn	DRSC11184	1.40e6	1.54e6	1.32e6	1.26e6	inactive
Cyp4aa1	DRSC07368	1.71e6	1.66e6	1.27e6	1.42e6	inactive
CG12746	DRSC12218	1.47e6	1.56e6	1.22e6	1.27e6	inactive
Men-b	DRSC16736	1.53e6	1.56e6	1.04e6	1.11e6	inactive
CG17111	DRSC15174	1.44e6	1.38e6	9.79e5	1.09e6	inactive
CG13010	DRSC19529	1.33e6	1.39e6	9.87e5	1.05e6	inactive
I-2	DRSC11194	1.78e6	1.65e6	9.88e5	1.10e6	inactive
sfl	DRSC08828	1.66e6	1.66e6	1.18e6	1.23e6	inactive
sfl	DRSC08830	1.30e6	1.61e6	1.14e6	1.29e6	inactive
CG34236	DRSC05435	1.47e6	1.47e6	9.67e5	1.16e6	inactive
CG2021	DRSC08546	1.55e6	1.45e6	9.95e5	1.31e6	inactive
Mpi	DRSC16417	1.55e6	1.61e6	1.36e6	1.42e6	inactive
CG34135	DRSC12702	1.47e6	1.70e6	1.09e6	1.26e6	inactive
CG7378	DRSC20041	1.44e6	1.47e6	1.02e6	1.09e6	inactive
CG17717	DRSC18130	1.51e6	1.49e6	1.02e6	1.11e6	inactive
Tim17a2	DRSC12252	1.64e6	1.81e6	1.24e6	1.37e6	inactive
CG2736	DRSC04314	1.43e6	1.51e6	1.06e6	1.04e6	inactive
CG16825	DRSC02526	1.60e6	1.66e6	1.30e6	1.44e6	inactive
Alr	DRSC19469	1.61e6	1.77e6	1.10e6	1.29e6	inactive
Csk	DRSC12861	1.40e6	1.55e6	1.03e6	1.16e6	inactive
Csk	DRSC15223	1.37e6	1.47e6	1.00e6	1.09e6	inactive
bug	DRSC07137	1.28e6	1.32e6	1.13e6	1.14e6	inactive
Sod3	DRSC07324	1.43e6	1.51e6	1.06e6	1.14e6	inactive
CASK	DRSC14588	1.32e6	1.28e6	1.02e6	1.15e6	inactive
CASK	DRSC16597	1.47e6	1.52e6	1.16e6	1.16e6	inactive
CASK	DRSC16598	1.32e6	1.43e6	9.89e5	1.08e6	inactive
CG15212	DRSC10212	1.26e6	1.37e6	1.11e6	1.17e6	inactive
Pmm2	DRSC09780	1.30e6	1.55e6	1.29e6	1.41e6	inactive
CG6665	DRSC07006	1.47e6	1.50e6	1.31e6	1.31e6	inactive
CG5966	DRSC18394	5.27e5		8.43e5		inactive
CG32087	DRSC10806	1.32e6	1.42e6	1.21e6	1.28e6	inactive
CG15657	DRSC04248	1.53e6	1.54e6	1.24e6	3.30e5	inactive
DptB	DRSC06001	1.74e6	1.65e6	1.21e6	1.41e6	inactive
CG14718	DRSC14941	1.71e6	1.88e6	1.35e6	1.44e6	inactive
CG31076	DRSC16017	1.52e6	1.52e6	9.87e5	1.09e6	inactive
CG12679	DRSC20493	1.39e6	1.47e6	1.02e6	1.09e6	inactive
CG9308	DRSC04539	1.58e6	1.68e6	1.40e6	4.08e5	inactive
bin	DRSC10332	1.61e6	1.74e6	9.61e5	1.08e6	inactive
lbm	DRSC07643	1.42e6	1.48e6	1.23e6	1.39e6	inactive
nrv1	DRSC03382	1.39e6	1.40e6	7.89e5	7.59e5	inactive

Sorted by “Kc cell number, rep 2” (low to high): 4 of the entries above
gene	amplicon	Kc cell number, rep 1	Kc cell number, rep 2	S2R+ cell number, rep 1	S2R+ cell number, rep 2	activity call
CASK	DRSC14588	1.32e6	1.28e6	1.02e6	1.15e6	inactive
bug	DRSC07137	1.28e6	1.32e6	1.13e6	1.14e6	inactive
Csk	DRSC15223	1.37e6	1.47e6	1.00e6	1.09e6	inactive
Sod3	DRSC07324	1.43e6	1.51e6	1.06e6	1.14e6	inactive
